# Test results reported in article PMC7271195, “CX3CL1 homo-oligomerization drives cell-to-cell adherence” (Scientific Reports, 2020).
# Chains of the proteins cited; added tags and fusions are not shown. Lines headed by an entry give the natural chain unless they say otherwise; changes in a name come on top.
# UniProt P78423: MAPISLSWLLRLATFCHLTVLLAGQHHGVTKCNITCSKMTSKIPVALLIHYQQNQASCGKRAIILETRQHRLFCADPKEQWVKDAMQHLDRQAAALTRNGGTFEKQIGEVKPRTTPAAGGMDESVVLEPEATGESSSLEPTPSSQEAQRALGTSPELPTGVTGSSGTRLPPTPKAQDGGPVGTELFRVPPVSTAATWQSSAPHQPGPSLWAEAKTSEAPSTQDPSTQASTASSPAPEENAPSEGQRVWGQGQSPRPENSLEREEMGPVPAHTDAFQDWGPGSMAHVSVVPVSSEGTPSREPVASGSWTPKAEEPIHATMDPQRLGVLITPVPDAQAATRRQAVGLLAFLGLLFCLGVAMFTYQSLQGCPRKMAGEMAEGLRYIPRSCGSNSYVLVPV
# UniProt P49238: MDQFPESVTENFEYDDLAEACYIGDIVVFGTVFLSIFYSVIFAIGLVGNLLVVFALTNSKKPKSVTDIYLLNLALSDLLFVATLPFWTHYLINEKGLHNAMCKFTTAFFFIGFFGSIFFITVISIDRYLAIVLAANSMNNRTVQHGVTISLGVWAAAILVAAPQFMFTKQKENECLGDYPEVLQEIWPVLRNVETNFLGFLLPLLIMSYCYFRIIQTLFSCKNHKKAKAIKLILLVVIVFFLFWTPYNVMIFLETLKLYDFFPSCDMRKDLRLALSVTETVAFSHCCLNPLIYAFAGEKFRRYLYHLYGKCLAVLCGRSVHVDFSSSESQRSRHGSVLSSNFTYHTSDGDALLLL
# These are yes or no findings as the source states them, for the method shown. Some results given as binding are weak or reduced against the parent protein; the word gives no strength.
# B1: TM24 peptide (transmembrane domain of CX3CL1 with two lysines at each end) (peptide)
# peptide: KKVGLLAFLGLLFCLGVAMFTYKK
# notes: two lysines added to ensure solubility; the 20 residues of the TM domain of CX3CL1; also called TM-CX3CL1 peptide; CX3CL1 transmembrane peptide; source: synthetic peptide
# Assays:
# [1] = biological target: CX3CL1-EYFP fusion protein (transiently expressed in COS-7 cells) (UniProt P78423); assay: FRAP; CX3CL1-EYFP in live COS-7 cells, 37 °C; diffusion rate with or without 15 min preincubation with 3 or 10 µM TM24 or SCR24
# [2] = biological target: CX3CR1 on CHO cells (CHO_(CX3CR1)) (UniProt P49238); assay: LigandTracer (real-time binding of fluorescent ligand to coated cells); 100 nM CX3CL1-AF647 on coated CHO_(CX3CR1) cells in HHBSS, with 5 µM TM24, 1 µM unstained CX3CL1 or none; only the binder purified
# [3] = biological target: CX3CL1-EYFP fusion protein (transiently expressed in COS-7 cells) (UniProt P78423); assay: FRAP; synthetic peptide (3 or 10 µM, 15 min preincubation) added to live COS-7 cells expressing CX3CL1-EYFP, 37 °C; diffusion rate of CX3CL1-EYFP; only the binder purified
molecule,measurement,setting,value
CX3CL1-EYFP fusion protein (transiently expressed in COS-7 cells) (from UniProt P78423 25-397),binding,[1],binds
fluorescent CX3CL1-AF647 (from UniProt P78423 25-341) (ligand),binding,[2],binds
B1,binding,[3],binds
